The source of these data is publication PMC9701216.

Sequences of proteins named here, by UniProt entry; tags and fusion partners are left off.
UniProt Q3TKT4: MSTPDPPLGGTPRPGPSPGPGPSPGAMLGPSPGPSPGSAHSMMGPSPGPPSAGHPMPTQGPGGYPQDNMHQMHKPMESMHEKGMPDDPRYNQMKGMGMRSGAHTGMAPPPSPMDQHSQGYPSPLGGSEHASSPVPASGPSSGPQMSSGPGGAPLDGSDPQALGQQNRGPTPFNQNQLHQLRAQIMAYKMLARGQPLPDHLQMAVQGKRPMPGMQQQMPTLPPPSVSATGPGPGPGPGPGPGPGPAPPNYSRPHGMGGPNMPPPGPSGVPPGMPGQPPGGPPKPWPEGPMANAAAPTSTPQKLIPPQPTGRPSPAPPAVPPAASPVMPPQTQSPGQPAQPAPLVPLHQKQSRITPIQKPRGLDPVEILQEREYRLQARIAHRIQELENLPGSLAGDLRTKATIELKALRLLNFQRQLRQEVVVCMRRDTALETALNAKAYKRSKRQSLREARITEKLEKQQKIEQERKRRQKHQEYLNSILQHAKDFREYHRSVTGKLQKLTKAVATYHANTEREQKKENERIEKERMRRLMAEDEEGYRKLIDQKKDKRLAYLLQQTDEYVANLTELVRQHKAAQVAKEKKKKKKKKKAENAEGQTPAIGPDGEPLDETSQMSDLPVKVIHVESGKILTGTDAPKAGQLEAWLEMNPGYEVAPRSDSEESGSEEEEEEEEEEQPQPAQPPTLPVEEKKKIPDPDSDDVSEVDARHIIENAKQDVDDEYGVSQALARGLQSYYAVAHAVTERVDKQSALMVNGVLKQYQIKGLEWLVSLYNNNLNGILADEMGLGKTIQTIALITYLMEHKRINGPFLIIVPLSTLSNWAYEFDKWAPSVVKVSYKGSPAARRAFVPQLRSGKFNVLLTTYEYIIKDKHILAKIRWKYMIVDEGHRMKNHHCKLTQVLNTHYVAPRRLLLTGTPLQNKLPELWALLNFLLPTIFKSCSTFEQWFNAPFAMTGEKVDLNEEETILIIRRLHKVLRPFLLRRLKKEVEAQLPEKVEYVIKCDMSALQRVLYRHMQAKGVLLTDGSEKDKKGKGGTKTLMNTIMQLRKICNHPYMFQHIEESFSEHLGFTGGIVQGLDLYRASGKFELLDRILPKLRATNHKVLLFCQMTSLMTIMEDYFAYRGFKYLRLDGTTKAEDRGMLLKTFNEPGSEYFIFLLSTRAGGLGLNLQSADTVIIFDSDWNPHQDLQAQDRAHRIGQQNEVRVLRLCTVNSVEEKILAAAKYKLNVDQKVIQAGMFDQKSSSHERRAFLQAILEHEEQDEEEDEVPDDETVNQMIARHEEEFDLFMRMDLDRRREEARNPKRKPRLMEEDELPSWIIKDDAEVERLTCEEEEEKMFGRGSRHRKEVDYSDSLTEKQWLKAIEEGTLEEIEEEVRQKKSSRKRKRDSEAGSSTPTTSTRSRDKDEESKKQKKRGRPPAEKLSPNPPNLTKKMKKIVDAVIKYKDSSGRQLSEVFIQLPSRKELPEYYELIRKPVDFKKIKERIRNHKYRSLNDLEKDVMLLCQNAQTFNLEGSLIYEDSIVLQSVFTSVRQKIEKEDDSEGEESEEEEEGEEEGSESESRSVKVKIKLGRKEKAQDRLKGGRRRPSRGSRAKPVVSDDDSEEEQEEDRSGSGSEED
UniProt O14497: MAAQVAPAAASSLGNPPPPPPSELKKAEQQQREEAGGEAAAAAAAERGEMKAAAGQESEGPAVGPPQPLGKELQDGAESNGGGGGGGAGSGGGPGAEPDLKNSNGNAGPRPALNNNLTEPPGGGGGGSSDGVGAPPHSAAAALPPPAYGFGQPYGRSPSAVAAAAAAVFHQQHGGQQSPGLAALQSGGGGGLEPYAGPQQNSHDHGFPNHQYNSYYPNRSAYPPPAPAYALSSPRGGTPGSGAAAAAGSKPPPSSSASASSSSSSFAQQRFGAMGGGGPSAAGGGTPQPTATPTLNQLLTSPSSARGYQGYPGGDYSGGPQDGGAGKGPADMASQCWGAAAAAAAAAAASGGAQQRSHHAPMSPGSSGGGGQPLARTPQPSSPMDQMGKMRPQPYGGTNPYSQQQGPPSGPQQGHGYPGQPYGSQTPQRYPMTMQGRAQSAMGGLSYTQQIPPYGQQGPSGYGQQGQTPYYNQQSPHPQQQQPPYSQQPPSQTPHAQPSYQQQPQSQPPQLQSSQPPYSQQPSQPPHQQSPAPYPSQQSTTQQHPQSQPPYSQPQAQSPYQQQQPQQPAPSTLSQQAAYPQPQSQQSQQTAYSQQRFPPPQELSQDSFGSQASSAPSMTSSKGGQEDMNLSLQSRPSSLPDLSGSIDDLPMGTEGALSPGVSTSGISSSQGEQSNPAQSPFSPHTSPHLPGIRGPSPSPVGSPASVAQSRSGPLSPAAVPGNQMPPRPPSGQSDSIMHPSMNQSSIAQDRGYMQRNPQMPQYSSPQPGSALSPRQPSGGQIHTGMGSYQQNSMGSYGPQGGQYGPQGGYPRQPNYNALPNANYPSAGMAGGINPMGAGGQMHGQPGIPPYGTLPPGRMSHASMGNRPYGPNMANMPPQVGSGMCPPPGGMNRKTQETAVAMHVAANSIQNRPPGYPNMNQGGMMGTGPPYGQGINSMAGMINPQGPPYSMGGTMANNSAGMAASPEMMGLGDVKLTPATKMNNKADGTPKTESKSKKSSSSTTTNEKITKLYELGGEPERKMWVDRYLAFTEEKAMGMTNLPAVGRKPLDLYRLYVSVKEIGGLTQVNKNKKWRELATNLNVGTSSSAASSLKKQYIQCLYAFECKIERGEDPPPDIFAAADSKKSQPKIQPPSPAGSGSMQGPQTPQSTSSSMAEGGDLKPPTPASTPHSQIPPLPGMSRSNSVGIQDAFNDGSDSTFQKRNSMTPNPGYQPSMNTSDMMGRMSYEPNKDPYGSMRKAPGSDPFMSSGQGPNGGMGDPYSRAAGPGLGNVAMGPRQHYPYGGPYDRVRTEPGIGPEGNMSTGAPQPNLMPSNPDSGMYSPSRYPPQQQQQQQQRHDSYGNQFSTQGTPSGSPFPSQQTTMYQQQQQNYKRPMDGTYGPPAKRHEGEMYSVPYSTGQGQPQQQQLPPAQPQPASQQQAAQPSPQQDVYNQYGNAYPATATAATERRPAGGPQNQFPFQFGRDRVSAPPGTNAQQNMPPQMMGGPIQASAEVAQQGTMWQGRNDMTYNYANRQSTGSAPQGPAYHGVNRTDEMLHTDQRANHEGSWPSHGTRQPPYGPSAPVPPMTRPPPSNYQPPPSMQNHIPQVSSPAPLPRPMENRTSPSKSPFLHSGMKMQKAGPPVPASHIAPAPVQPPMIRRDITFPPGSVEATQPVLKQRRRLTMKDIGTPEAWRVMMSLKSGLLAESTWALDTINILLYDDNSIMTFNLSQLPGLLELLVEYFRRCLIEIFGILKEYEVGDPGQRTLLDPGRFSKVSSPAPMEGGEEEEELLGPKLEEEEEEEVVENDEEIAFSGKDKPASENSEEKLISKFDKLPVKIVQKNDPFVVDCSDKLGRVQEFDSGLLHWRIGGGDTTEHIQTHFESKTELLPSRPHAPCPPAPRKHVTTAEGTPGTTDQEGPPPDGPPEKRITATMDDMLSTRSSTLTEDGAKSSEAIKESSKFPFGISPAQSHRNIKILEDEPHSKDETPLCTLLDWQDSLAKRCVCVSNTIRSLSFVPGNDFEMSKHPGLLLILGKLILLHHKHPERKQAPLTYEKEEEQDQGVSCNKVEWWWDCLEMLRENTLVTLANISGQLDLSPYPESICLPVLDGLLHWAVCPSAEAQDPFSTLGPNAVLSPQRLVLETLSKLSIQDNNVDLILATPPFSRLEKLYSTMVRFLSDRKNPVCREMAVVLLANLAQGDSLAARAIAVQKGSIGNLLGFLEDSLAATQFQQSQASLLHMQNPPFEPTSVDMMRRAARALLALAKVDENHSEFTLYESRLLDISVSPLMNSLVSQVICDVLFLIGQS
UniProt Q9QX66: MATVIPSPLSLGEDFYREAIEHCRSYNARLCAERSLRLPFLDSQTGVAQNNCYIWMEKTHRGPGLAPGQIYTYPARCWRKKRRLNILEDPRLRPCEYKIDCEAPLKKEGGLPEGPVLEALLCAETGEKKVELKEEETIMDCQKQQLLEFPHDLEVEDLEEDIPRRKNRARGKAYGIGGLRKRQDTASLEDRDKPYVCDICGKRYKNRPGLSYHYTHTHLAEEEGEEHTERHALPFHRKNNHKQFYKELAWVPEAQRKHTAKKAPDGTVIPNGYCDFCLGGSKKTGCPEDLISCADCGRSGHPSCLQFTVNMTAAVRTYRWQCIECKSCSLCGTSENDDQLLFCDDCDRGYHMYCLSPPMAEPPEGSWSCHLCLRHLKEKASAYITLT
UniProt P97496: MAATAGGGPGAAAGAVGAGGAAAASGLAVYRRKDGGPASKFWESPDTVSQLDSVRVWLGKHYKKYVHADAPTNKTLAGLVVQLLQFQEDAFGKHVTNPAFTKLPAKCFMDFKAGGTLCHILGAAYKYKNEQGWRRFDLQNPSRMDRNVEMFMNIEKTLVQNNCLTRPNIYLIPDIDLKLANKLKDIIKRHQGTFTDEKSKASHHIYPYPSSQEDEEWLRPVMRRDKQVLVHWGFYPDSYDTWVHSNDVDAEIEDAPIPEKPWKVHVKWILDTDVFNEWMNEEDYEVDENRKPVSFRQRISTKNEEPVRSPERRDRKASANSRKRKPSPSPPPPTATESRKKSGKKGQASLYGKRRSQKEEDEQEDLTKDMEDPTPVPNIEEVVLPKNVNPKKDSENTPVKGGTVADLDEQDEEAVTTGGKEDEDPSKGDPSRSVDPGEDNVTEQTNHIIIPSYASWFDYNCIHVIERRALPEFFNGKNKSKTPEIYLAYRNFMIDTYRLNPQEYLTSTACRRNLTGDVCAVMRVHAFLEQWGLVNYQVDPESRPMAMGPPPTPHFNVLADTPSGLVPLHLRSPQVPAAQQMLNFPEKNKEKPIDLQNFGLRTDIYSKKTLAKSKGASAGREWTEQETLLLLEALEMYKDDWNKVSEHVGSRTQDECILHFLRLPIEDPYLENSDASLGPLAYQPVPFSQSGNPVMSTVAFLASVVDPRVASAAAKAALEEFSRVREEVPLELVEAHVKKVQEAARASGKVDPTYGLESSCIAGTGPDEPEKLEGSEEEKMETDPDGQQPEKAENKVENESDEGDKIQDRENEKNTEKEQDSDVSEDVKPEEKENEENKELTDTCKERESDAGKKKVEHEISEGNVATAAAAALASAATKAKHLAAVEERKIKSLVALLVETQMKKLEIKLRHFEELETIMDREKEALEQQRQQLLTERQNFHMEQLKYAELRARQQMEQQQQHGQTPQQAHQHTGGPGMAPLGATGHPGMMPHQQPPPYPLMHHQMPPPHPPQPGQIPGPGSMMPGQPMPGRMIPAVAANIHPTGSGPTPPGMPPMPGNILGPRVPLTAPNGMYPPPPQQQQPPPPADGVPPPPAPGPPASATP
UniProt Q99MR0: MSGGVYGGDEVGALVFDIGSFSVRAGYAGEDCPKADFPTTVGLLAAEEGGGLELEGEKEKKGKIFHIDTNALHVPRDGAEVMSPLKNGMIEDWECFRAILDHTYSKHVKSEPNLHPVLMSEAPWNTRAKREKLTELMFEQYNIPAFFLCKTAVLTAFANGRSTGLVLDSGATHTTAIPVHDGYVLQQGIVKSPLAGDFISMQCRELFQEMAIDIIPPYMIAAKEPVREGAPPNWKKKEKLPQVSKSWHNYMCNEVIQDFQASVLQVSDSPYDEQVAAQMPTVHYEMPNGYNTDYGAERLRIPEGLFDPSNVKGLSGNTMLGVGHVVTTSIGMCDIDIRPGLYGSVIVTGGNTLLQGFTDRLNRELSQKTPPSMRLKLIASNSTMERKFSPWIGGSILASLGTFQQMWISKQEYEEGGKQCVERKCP

No constants are given. Whether binding was seen depends on the method and setting. For some of these results: In cells and extracts the contact can be indirect. Some results given as binding are weak or reduced against the parent protein; the word gives no strength.

The target in assay [1] is BRG1 (mouse (endogenous in prostate tumors)) (UniProt Q3TKT4). Nature of the assay: co-IP; anti-BRG1 antibody on lysates of Pten^PC-/- and Pten^PC-/-; Arid1a^PC-/- mouse prostate tumors, immunoblot. On the technique in general: In western blotting, separated proteins are transferred to a membrane and probed.
Assay [2] addresses ARID1A (endogenous, C4-2 cells) (human (endogenous in C4-2)) (UniProt O14497). As to the kind of experiment: co-IP; anti-ARID1A immunoprecipitates of C4-2 cells, with or without TNF-α, immunoblot; HEPES lysis buffer pH 7.4, 200 mM NaCl, 0.5% NP-40, 4 °C overnight.
For assay [3] the target is unchanged. Nature of the assay: SEC; gel filtration of C4-2 nuclear extracts on Superose 6 Increase 10/300 GL, fractions immunoblotted; cells treated with 20 ng/ml TNFα for 30 min.

As to BAF45B (from UniProt Q9QX66 1-387), the binding entry in assay [1] is “binds”.

Take BAF155 (from UniProt P97496 1-1104): the binding result in assay [1] is reported as “binds”. Regarding ARID1B (from UniProt E9Q4N7 1-2306), the binding result in assay [1] was “binds”. As to BAF53B (from UniProt Q99MR0 1-426), the binding entry in assay [1] was “binds”.

B1: IKKβ (endogenous, C4-2 cells) (enzyme, UniProt O14920 1-756)
chain: MSWSPSLTTQTCGAWEMKERLGTGGFGNVIRWHNQETGEQIAIKQCRQELSPRNRERWCLEIQIMRRLTHPNVVAARDVPEGMQNLAPNDLPLLAMEYCQGGDLRKYLNQFENCCGLREGAILTLLSDIASALRYLHENRIIHRDLKPENIVLQQGEQRLIHKIIDLGYAKELDQGSLCTSFVGTLQYLAPELLEQQKYTVTVDYWSFGTLAFECITGFRPFLPNWQPVQWHSKVRQKSEVDIVVSEDLNGTVKFSSSLPYPNNLNSVLAERLEKWLQLMLMWHPRQRGTDPTYGPNGCFKALDDILNLKLVHILNMVTGTIHTYPVTEDESLQSLKARIQQDTGIPEEDQELLQEAGLALIPDKPATQCISDGKLNEGHTLDMDLVFLFDNSKITYETQISPRPQPESVSCILQEPKRNLAFFQLRKVWGQVWHSIQTLKEDCNRLQQGQRAAMMNLLRNNSCLSKMKNSMASMSQQLKAKLDFFKTSIQIDLEKYSEQTEFGITSDKLLLAWREMEQAVELCGRENEVKLLVERMMALQTDIVDLQRSPMGRKQGGTLDDLEEQARELYRRLREKPRDQRTEGDSQEMVRLLLQAIQSFEKKVRVIYTQLSKTVVCKQKALELLPKVEEVVSLMNEDEKTVVRLQEKRQKELWNLLKIACSKVRGPVSGSPDSMNASRLSQPGQLMSQPSTASNSLPEPAKKSEELVAEAHNLCTLLENAIQDTVREQDQSFTALDWSWLQTEEEEHSCLEQAS
Turning to B1, the binding result in assay [2] and in assay [3] was “binds” each time.

B2: p-IKKβ (endogenous, C4-2 cells) (enzyme, UniProt O14920 1-756)
chain: B1 chain
modifications: phosphorylated (p-IKKβ); sites not stated for this blot
As to B2, in assay [3], the binding entry is given as “binds”.
